The source of these data is paper PMC6522492.

Sequences of proteins named here, by UniProt entry; tags and fusion partners are left off.
UniProt Q8ILA2: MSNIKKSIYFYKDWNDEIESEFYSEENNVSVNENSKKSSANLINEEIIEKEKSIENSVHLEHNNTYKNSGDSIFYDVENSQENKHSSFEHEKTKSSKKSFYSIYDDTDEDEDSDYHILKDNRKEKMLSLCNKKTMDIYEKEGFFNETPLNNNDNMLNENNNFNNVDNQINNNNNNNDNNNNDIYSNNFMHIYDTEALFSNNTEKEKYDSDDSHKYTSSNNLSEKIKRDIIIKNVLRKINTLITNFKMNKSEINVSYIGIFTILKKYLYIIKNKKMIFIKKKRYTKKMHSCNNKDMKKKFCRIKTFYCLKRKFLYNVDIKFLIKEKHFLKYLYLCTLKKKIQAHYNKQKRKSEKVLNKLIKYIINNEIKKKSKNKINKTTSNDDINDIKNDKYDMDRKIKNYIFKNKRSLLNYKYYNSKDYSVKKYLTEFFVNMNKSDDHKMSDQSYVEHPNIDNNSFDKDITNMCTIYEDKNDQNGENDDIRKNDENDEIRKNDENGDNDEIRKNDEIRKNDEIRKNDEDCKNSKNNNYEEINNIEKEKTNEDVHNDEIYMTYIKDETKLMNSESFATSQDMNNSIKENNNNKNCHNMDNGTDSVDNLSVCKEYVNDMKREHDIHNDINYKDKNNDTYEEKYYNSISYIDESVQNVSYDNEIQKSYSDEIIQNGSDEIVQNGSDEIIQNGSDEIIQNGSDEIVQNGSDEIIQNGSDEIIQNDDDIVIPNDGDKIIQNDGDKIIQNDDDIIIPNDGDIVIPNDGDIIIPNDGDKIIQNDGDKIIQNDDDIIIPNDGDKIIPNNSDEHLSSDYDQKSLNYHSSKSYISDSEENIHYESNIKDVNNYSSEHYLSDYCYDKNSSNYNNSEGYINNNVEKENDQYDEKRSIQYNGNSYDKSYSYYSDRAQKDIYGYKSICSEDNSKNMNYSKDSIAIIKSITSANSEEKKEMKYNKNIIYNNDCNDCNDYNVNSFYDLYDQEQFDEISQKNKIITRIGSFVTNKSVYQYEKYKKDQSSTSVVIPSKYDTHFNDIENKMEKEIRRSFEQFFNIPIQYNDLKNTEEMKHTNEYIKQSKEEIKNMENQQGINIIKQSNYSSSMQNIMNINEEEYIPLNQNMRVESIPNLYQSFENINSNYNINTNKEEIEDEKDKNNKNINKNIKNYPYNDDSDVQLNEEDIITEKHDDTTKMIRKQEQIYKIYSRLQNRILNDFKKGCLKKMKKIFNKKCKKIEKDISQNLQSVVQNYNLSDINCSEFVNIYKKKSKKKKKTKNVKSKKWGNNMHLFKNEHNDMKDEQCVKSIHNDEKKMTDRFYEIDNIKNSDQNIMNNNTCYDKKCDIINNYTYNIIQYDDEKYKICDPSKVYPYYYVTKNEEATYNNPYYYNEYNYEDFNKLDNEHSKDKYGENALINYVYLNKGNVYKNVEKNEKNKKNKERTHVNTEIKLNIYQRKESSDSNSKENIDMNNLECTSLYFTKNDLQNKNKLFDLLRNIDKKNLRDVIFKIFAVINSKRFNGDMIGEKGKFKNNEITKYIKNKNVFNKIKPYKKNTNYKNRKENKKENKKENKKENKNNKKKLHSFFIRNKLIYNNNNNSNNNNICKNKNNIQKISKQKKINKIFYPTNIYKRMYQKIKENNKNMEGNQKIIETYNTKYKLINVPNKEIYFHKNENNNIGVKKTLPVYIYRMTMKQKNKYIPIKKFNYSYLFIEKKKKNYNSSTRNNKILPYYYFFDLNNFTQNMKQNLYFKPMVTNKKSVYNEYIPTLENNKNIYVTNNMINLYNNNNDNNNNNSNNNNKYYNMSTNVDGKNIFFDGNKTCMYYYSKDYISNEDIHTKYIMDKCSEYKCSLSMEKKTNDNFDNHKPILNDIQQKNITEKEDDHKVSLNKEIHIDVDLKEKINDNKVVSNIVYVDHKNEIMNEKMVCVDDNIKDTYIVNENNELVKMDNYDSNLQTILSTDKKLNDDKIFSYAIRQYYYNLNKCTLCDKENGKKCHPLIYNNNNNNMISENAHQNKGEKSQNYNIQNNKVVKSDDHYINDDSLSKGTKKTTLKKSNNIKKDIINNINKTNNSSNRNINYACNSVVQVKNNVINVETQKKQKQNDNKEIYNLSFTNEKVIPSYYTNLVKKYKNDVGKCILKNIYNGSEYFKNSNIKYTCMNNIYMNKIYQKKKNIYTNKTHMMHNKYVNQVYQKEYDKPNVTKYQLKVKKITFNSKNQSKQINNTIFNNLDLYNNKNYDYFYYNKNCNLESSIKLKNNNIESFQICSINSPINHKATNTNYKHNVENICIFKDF
UniProt Q9U0K8: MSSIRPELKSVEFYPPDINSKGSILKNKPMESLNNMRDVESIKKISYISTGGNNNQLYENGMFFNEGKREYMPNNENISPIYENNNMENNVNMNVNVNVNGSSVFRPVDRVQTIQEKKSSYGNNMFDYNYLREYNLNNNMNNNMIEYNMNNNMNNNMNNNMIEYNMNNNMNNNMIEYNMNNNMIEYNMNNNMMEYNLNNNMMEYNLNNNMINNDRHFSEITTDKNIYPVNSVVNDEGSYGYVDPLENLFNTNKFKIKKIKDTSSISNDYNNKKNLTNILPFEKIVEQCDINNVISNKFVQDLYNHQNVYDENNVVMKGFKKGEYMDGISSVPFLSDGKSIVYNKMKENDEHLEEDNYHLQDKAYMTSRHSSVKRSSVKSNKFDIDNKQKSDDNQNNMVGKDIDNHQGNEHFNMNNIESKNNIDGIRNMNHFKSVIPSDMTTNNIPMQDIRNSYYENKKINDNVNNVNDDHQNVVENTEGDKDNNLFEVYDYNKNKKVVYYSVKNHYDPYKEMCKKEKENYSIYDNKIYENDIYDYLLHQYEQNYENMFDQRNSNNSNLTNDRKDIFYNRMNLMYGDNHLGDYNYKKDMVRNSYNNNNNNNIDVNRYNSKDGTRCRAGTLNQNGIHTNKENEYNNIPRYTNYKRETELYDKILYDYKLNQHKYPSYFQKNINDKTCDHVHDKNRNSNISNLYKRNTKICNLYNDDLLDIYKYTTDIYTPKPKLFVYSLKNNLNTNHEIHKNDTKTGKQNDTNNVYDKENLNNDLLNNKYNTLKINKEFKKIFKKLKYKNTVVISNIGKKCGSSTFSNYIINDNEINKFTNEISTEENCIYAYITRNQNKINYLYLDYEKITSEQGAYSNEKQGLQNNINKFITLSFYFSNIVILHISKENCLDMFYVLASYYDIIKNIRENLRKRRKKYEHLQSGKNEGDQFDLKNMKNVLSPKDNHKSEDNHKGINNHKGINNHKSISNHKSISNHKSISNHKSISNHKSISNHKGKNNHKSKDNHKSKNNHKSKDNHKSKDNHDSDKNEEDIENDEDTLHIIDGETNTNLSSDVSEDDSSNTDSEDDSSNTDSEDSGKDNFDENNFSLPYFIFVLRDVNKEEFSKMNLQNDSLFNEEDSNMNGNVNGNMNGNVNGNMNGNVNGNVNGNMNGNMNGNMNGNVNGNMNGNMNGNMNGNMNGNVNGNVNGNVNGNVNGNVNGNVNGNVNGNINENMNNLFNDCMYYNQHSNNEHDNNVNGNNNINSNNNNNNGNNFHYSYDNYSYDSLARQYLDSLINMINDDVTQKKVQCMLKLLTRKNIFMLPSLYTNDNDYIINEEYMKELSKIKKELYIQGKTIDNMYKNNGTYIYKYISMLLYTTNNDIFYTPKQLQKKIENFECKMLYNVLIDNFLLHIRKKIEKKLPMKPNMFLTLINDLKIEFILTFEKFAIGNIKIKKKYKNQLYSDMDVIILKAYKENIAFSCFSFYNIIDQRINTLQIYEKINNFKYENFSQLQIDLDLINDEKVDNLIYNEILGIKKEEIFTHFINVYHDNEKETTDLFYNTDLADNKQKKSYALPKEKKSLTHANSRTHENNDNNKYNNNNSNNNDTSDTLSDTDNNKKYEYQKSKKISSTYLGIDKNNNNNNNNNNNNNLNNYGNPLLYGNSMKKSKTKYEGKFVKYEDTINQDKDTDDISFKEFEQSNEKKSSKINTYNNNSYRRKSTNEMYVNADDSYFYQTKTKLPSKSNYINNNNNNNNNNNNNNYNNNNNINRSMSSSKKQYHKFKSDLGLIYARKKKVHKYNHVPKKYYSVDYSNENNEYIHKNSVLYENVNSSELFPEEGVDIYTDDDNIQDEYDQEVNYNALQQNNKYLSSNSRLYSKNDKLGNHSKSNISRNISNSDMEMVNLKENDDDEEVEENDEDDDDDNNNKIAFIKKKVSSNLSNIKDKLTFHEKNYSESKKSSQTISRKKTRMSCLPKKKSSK

In this test the target is P. falciparum basal complex protein 1 (PfBCP1), PF3D7_1436200 (Plasmodium falciparum (endogenous in 3D7 schizonts)) (UniProt Q8ILA2). In words: co-IP; RIPA lysate of PfCINCH^smV5-Tet schizonts, pre-cleared, PfBCP1 antisera or pre-immune sera 1 h at 4 °C, Protein A beads, three RIPA washes; eluate immunoblotted with anti-V5. A general note: Immunoblotting shows a protein as a band on a membrane.

Results are given in words; binding and its absence hold for the method and conditions named. Binding seen in cells or lysates may run through a third protein. Some results given as binding are weak or reduced against the parent protein; the word gives no strength.

Turning to “P. falciparum coordinator of nascent cell detachment (PfCINCH), PF3D7_0407800, with the spaghetti monster V5 tag at its carboxy terminus (from UniProt Q9U0K8 1-1960)”, the binding entry was “binds”.
